Measured values from article PMC12411611.
No constants are given. Whether binding was seen depends on the method and setting. Binding seen in cells or lysates may run through a third protein. Some binding calls cover weakened binding; strength is not graded here.

Protein sequences, listed by entry. Tags and fused reporters are not part of them.
UniProt Q9Z2D8: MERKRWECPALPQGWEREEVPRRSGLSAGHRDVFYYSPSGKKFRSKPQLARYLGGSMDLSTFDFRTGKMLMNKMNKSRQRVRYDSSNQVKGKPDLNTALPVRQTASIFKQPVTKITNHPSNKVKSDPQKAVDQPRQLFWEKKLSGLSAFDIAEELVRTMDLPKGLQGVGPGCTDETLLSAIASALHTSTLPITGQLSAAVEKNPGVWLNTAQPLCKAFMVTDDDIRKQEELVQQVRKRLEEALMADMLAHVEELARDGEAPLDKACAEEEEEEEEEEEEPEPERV
UniProt Q8K4B0: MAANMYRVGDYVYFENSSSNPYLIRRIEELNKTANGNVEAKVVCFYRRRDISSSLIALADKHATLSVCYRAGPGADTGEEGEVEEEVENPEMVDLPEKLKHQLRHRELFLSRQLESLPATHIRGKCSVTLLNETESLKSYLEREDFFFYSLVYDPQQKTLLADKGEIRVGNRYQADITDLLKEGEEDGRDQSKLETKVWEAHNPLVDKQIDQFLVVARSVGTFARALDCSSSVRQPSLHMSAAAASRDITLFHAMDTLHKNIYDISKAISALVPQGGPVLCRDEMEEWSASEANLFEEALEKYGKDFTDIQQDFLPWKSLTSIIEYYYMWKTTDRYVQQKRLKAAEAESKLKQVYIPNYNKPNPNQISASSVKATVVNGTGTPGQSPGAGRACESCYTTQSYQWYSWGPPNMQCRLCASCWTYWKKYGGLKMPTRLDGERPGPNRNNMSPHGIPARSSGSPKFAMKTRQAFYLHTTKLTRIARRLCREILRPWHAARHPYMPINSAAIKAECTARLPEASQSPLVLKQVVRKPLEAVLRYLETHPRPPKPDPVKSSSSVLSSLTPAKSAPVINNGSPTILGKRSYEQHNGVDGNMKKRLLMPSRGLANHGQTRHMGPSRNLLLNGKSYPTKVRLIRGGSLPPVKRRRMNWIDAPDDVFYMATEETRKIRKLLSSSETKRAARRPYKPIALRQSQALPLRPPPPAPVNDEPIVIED

Biological target: Mbd3 (as immunoprecipitated with NuRD components) (UniProt Q9Z2D8)
Test: co-IP; IP of Mbd3 with blots for NuRD components, with and without Wnt3a treatment; IP buffer (50 mM Tris-HCl pH 7.4, 150 mM NaCl, 0.5% Triton X-100, 1% NP-40), Protein A/G beads, immunoblot

binding: binds
Substance: MTA1 (from UniProt Q8K4B0 1-715)
